From paper PMC3666897
These are yes or no findings as the source states them, for the method shown. One block for each substance: values may come before it.

Legend:
Experiment in all cases: SEC; S200 SMART column; after dilution with monomerization buffer (15% glycerol, 20 mM HEPES pH 7.4, 100 mM NaCl, 0.1 mM TCEP) and incubation overnight at 15°C; both purified
[1] = target: E. coli DNA polymerase III α subunit (residues 1-917) 5mPHP mutant (R10H, F44H, D69E, G134C, R203H) (E. coli) (UniProt P10443)
[2] = target: E. coli DNA polymerase III α subunit, truncated version (residues 1-917), wild type (E. coli) (UniProt P10443)
[3] = target: E. coli DNA polymerase III α subunit (residues 1-917) 3mPHP mutant (R10H, F44H, R203H) (E. coli) (UniProt P10443)
[4] = target: E. coli DNA polymerase III α subunit (residues 1-917) 4mPHP mutant (R10H, F44H, G134C, R203H) (E. coli) (UniProt P10443)

- binding [1]: no binding
Substance: E. coli DNA polymerase III α subunit (residues 1-917) 5mPHP mutant (R10H, F44H, D69E, G134C, R203H) (from UniProt P10443 1-917) (enzyme)

- binding [2]: no binding
Substance: E. coli DNA polymerase III α subunit, truncated version (residues 1-917), wild type (from UniProt P10443 1-917) (enzyme)

- binding [3]: no binding
Substance: E. coli DNA polymerase III α subunit (residues 1-917) 3mPHP mutant (R10H, F44H, R203H) (from UniProt P10443 1-917) (enzyme)

- binding [4]: no binding
Substance: E. coli DNA polymerase III α subunit (residues 1-917) 4mPHP mutant (R10H, F44H, G134C, R203H) (from UniProt P10443 1-917) (enzyme)
